Measured data: PubChem BioAssay AID1259308 (NCATS, 2017)
Shown is one part, drawn at random, of about 59,000 reagents tested. Of all reagents, about 1,510 (2.6%) were called active. 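Calls use total luciferase alone and ignore viability, so some active siRNAs may act by altering cell number.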 A number with no mark means an inactive call. Not all columns of the deposit are shown.

Aim: 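Candidate targets for better recombinant protein yield in mammalian cells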 (primary screen)
System: human HEK293 embryonic kidney cells stably expressing firefly luciferase (HEK-CMV-Luc2-Hygro)
Reagent: single siRNA against human genes, 0.8 pmol siRNA per well
Time to read-out: 72 h
Read-out: 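Reporter luminescence and viable-cell signal on separate replicate plates, given as percent of non-targeting control and median/MAD z-scores, plus per-cell luciferase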
Direction: total luciferase, z-score: higher = more reporter protein produced
Rule for the call: 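Active when the median/MAD z-score for overall luciferase is greater than 3; a gene was taken forward for validation with new siRNAs if at least two of its three siRNAs passed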
Calls: active = raised luciferase; inactive = no rise

After knock-down of DYNC1LI2 [SID160755504], the record shows total luciferase, z-score -2.1.
DYNC1LI2 [SID160755516] scored total luciferase, z-score -0.296.
For DYNC1LI2 [SID160755526], the entry reads total luciferase, z-score 0.411.
Against IFNA2 [SID160775572], the entry reads total luciferase, z-score -0.514.
With knock-down of IFNA2 [SID160775573], the record shows total luciferase, z-score -0.332.
Silencing of IFNA2 [SID160775574] came out at: total luciferase, z-score -0.426.

2 successive reagents already listed:
IFNA2 [SID160775572] → total luciferase, z-score: -0.514
IFNA2 [SID160775573] → total luciferase, z-score: -0.332

The results go on.
FOXE1 [SID160730822] gave total luciferase, z-score -1.74.
With knock-down of FOXE1 [SID160766174] the results were total luciferase, z-score -0.0523.
After knock-down of FOXE1 [SID160766193] the results were total luciferase, z-score 0.25.
After knock-down of NUP42 [SID160729934] the results were total luciferase, z-score -0.759.
Depletion of NUP42 [SID160729935] came out at: total luciferase, z-score -0.492.
Against NUP42 [SID160729936], the entry reads total luciferase, z-score -1.19.
